The text below walks through data of article PMC7819943, “Rice protein-binding microarrays: a tool to detect cis-acting elements near promoter regions in rice”.

Chains of the proteins cited; added tags and fusions are not shown.
UniProt Q0JBA9, entry or part of it: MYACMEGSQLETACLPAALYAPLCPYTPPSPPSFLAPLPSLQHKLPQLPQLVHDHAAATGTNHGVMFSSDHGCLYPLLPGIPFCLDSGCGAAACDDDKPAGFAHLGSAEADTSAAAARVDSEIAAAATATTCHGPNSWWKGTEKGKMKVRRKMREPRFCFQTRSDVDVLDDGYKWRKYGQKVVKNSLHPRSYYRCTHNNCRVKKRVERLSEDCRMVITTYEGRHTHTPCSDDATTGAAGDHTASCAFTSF

Some of the results follow.

The assay addresses OsWRKY34 (Oryza sativa, UniProt Q0JBA9 1-250). As to the kind of experiment: protein-binding microarray (RPBM); PBS, 2% BSA, 51.3 ng/ul salmon testes DNA, 50 uM zinc acetate, 200 nM TF, 25 C, 1 h; high values mean tight binding. The following applies: protein: recombinant; tags: N-terminal polyhistidine and DsRed monomer fusion (pET32a); label: CyDye5-dUTP incorporated in the synthesized complementary strand; 3' TTTTT single-stranded linker to array surface; dsDNA, one strand shown. The essentials: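 A custom Agilent array was converted to double-stranded form by primer extension with Cy5-dUTP and blocked with 2% BSA. Protein at 200 nM in PBS with 2% BSA, salmon testes DNA and 50 µM zinc acetate was applied for 1 h at 25 °C, followed by washing. The proteins were polyhistidine–DsRed N-terminal fusions of transcription factors, expressed in E. coli BL21-CodonPlus and Ni–NTA-purified. The binding signal is per-feature fluorescence intensity (arbitrary units) from an Axon 4000B scanner.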
“GACTCACCATACCTGCAACCGGCTAGATGCATCGACTCCTCGGAGTCACCTAGTGCAG”: the binding signal is 9790 fluorescence intensity (a.u.).

In the case of “TGGATTGTCTATATAACGAGACCCATTGCAATGCTTCATCCGGAGTCACCTAGTGCAG”, the binding signal was 8470 fluorescence intensity (a.u.).

For the sequence “CCCCAACTCCCTAGCTACTCCCTGTCCCGGTTCTATAAATCGGAGTCACCTAGTGCAG”, the binding signal is 10300 fluorescence intensity (a.u.).

For the sequence “TCTTTTCCTATCATTTGATTCATTGTTAAATATATTTTTACGGAGTCACCTAGTGCAG”, the binding signal is 8540 fluorescence intensity (a.u.).

For “GCTTCCTGCCTCTCCGCTCTCCATGTGCGTGCCACCAAATCGGAGTCACCTAGTGCAG”, the binding signal is 8650 fluorescence intensity (a.u.).

Turning to “TCACATCACGATCGGCAACCTTATCTTGTCTCGAAACTGACGGAGTCACCTAGTGCAG”, the binding signal is 8700 fluorescence intensity (a.u.).

As to “GTCAAACATTTTTAAAAAAGTCAACGGCGTTAAATATTTTCGGAGTCACCTAGTGCAG”, the binding signal was 14500 fluorescence intensity (a.u.).

In the case of “GCAGAGAAGCACATTTTTTTTCTGGCACATTATTACTCATCGGAGTCACCTAGTGCAG”, the binding signal is 9360 fluorescence intensity (a.u.).

For the sequence “GTGATTGGTTGGGAGGAGAATGTTGGTAGAGAAGTTGTTACGGAGTCACCTAGTGCAG”, the binding signal is 8100 fluorescence intensity (a.u.).

Consider “CAGCTTCGACATTCACATAATATCATCTTTCGGAATTTGTCGGAGTCACCTAGTGCAG”, for which the binding signal was 8360 fluorescence intensity (a.u.).

Consider “GCCCACTACTACCACTTCGCCTCCTTCCCATCGAGGGCGACGGAGTCACCTAGTGCAG”, for which the binding signal is 8500 fluorescence intensity (a.u.).

With “ATATTTCTTTTCGTCGCTTTTATGTTCCTTTTCATGATCTCGGAGTCACCTAGTGCAG”, the binding signal was 8060 fluorescence intensity (a.u.).

On to “CCCCACGACGCCCAGCTCGACCTCACCCGCGGCATCCCAACGGAGTCACCTAGTGCAG”, for which the binding signal was 9720 fluorescence intensity (a.u.).

For the sequence “CACCACCTCTCCACCGCTATAAAATCGCCAACTCGTCTTCCGGAGTCACCTAGTGCAG”, the binding signal is 8990 fluorescence intensity (a.u.).

For “TAACCCGTTCGCTATCCTTGTTTCTATTGCATTTTATCTCCGGAGTCACCTAGTGCAG”, the binding signal is 15400 fluorescence intensity (a.u.).

Take “GCCTTTTCTTGACTCGGTGGTGGGAGGGGAATTTTCGTGACGGAGTCACCTAGTGCAG”: the binding signal was 27000 fluorescence intensity (a.u.).

Take “GCGCTAGGGGCGGTATTTAATAGTACGTCTTATAGATGGTCGGAGTCACCTAGTGCAG”: the binding signal is 8060 fluorescence intensity (a.u.).

“AGACATGGTTTTATTCTCTTTCCTCATTTATTCACTTGCCCGGAGTCACCTAGTGCAG”: the binding signal was 9650 fluorescence intensity (a.u.).

Regarding “CCGACAGCTTGCTCGCCCGCACGCCGGCCTGATCGTTGACCGGAGTCACCTAGTGCAG”, the binding signal is 14100 fluorescence intensity (a.u.).

On to “TAGCCAGAGACTATCCCGCCGTATTATTTCGACCAAATTCCGGAGTCACCTAGTGCAG”, for which the binding signal is 8090 fluorescence intensity (a.u.).

For the sequence “TTTTGGTAGCGGCCTTAATTAGTTCCAGATCTCCCAAGTGCGGAGTCACCTAGTGCAG”, the binding signal was 8980 fluorescence intensity (a.u.).

For the sequence “TCTCCGCCCGCTCGCCGCCGCCGCCGCCCGCGTCGACTCGCGGAGTCACCTAGTGCAG”, the binding signal is 8320 fluorescence intensity (a.u.).

Turning to “GAGCAACATCACGCGAGGCATTTAACTATTTGTCACTTTTCGGAGTCACCTAGTGCAG”, the binding signal was 10400 fluorescence intensity (a.u.).

As for “GGGGACCACCTATACATTTGTCGACAAATTTTCTACTAAACGGAGTCACCTAGTGCAG”, the binding signal was 9820 fluorescence intensity (a.u.).

Consider “CTCCACCCAAAACCCCTCGTCCTCTCTCCCGGCGACAATGCGGAGTCACCTAGTGCAG”, for which the binding signal was 8080 fluorescence intensity (a.u.).

In the case of “GCTCCTTTGTTCCGGCTCTCTTGTCCCCTGCTGCCTTTTGCGGAGTCACCTAGTGCAG”, the binding signal was 9300 fluorescence intensity (a.u.).

Turning to “CGCGCCCTCCGTCCCCAATCCTCCCGGCGAGCGGGACGAACGGAGTCACCTAGTGCAG”, the binding signal is 9080 fluorescence intensity (a.u.).

For “CGCCCCAATTTCCATGTACACGTAGCAGTTTCTCCCAAAACGGAGTCACCTAGTGCAG”, the binding signal was 10000 fluorescence intensity (a.u.).

For “CGGTTTGATAAACGACTGTAGCCAAAAGTACTTTTCAATCCGGAGTCACCTAGTGCAG”, the binding signal is 8220 fluorescence intensity (a.u.).

For “GTGGTATCACCGACCTTTGTTTCCCATTATTCAATACAAACGGAGTCACCTAGTGCAG”, the binding signal was 8920 fluorescence intensity (a.u.).

As for “TACTTTGTGCAACCCATTACGCCACATGATGCTGCCTATACGGAGTCACCTAGTGCAG”, the binding signal is 8830 fluorescence intensity (a.u.).

Take “CATGTCTTCCATTCCACAAACATTTCCATTGCTGCATAACCGGAGTCACCTAGTGCAG”: the binding signal was 10300 fluorescence intensity (a.u.).

For “TTGTTACTACATTTCCTGTACTATTTTACTGTCTGATTTACGGAGTCACCTAGTGCAG”, the binding signal was 8460 fluorescence intensity (a.u.).

As to “AAACCCTCGCAACGTATCATGCCACATAATGCCACATAGACGGAGTCACCTAGTGCAG”, the binding signal is 11100 fluorescence intensity (a.u.).

For the sequence “GAATCATGAGTTGGTTGGGTTGGCATTAAACTGTTTTGAGCGGAGTCACCTAGTGCAG”, the binding signal was 12100 fluorescence intensity (a.u.).

Turning to “CCTCCCTCCCATCCGATCCCGTCCGTCCATCTCCGATCCGCGGAGTCACCTAGTGCAG”, the binding signal is 8140 fluorescence intensity (a.u.).

As to “CACCCTTCTTCTCACCCATTGACGGATGCCCTGGAGGTTTCGGAGTCACCTAGTGCAG”, the binding signal was 10400 fluorescence intensity (a.u.).

For “TCTCCACATCTCCCTCTCGCTTCCACGCCTCCTCCGCTTTCGGAGTCACCTAGTGCAG”, the binding signal is 9810 fluorescence intensity (a.u.).

With “AGCTCACCTCTTCAAACGTTGCATGCACTTGGTGTACACACGGAGTCACCTAGTGCAG”, the binding signal is 8030 fluorescence intensity (a.u.).

Take “CTCCTCATCCTCATGGATGCGCCGGCTTCACCGTGCGCGTCGGAGTCACCTAGTGCAG”: the binding signal is 8930 fluorescence intensity (a.u.).

Consider “GCCGAGCCGCGTCCCTTTTTCCCATCGCCCACGCAGCGAGCGGAGTCACCTAGTGCAG”, for which the binding signal is 8920 fluorescence intensity (a.u.).

As for “CCGCGACTCATTTATTAGCTCGTTTCTGTGAACATTCTAGCGGAGTCACCTAGTGCAG”, the binding signal is 9490 fluorescence intensity (a.u.).
